Measured values reported in the supplement of paper PMC10849652.
The list shows a part of the results.

Chains of the proteins cited; added tags and fusions are not shown. Lines headed by an entry give the natural chain unless they say otherwise; changes in a name come on top.
UniProt Q9NWB6: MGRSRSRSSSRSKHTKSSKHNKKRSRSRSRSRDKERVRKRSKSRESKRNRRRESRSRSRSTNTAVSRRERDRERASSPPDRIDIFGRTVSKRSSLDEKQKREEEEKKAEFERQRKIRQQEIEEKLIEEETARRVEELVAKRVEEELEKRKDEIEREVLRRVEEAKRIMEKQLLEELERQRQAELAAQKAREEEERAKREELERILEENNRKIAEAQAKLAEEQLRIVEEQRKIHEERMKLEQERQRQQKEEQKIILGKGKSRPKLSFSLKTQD
UniProt O95376: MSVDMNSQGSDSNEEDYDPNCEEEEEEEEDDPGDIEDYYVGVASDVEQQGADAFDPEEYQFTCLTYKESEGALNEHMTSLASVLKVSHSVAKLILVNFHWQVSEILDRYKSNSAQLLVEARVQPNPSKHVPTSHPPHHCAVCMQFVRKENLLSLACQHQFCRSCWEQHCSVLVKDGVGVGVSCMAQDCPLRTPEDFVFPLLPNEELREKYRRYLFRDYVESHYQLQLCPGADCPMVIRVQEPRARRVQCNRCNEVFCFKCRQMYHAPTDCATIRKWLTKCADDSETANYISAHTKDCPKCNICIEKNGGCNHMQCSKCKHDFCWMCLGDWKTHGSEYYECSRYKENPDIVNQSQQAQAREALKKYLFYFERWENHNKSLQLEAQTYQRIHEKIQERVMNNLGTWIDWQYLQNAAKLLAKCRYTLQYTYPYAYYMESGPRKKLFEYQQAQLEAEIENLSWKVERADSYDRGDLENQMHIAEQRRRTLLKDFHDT
UniProt Q02410: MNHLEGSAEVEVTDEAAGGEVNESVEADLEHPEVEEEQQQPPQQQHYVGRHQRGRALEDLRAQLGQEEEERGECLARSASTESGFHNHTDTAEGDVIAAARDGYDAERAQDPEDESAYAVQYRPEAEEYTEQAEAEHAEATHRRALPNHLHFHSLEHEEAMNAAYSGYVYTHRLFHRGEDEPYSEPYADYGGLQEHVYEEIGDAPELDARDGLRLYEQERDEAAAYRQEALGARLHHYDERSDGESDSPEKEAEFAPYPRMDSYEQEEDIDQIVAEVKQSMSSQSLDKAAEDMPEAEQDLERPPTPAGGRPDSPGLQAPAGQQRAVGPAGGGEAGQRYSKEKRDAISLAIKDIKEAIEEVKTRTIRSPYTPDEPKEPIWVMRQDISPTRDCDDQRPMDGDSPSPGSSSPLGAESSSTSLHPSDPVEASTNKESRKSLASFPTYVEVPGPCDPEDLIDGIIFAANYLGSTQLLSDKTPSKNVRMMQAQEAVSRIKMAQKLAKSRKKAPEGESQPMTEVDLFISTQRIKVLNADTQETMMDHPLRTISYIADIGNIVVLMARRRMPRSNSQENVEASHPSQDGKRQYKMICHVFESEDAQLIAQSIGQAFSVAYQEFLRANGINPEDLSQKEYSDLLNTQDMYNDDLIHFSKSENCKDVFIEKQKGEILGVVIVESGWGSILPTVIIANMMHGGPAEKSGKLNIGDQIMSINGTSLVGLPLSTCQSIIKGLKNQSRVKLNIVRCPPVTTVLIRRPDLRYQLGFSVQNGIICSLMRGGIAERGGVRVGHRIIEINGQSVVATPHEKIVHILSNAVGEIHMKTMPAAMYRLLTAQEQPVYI
UniProt Q9NUS5: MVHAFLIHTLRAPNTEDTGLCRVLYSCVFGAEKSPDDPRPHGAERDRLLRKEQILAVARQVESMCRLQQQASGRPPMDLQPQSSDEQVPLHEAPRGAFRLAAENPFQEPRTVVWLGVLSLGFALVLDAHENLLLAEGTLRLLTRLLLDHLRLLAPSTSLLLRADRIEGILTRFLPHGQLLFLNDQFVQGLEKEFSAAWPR
UniProt Q9NVJ2: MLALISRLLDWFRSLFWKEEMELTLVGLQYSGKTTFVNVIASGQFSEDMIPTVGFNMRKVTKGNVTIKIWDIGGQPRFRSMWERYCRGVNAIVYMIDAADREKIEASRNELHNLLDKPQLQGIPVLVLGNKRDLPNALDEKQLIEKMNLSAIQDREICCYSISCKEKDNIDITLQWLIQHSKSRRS
UniProt Q9UKG1: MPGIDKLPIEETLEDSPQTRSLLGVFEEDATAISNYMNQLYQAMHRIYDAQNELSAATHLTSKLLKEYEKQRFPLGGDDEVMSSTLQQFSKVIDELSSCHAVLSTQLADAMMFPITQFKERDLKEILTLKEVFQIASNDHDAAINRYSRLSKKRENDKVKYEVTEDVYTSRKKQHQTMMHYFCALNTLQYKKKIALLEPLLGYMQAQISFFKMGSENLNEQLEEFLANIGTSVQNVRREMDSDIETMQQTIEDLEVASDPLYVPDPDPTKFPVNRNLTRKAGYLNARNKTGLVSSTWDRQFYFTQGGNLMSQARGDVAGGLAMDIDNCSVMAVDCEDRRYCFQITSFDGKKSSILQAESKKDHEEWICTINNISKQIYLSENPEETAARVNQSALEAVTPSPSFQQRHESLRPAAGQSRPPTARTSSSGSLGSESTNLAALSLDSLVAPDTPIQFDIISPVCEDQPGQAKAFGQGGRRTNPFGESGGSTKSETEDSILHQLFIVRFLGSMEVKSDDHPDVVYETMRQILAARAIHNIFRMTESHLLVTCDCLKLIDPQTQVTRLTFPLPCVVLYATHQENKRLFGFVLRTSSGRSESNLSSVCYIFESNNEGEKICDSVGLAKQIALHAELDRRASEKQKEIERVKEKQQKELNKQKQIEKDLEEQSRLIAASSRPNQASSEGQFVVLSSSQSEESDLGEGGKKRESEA
UniProt Q8IUX4: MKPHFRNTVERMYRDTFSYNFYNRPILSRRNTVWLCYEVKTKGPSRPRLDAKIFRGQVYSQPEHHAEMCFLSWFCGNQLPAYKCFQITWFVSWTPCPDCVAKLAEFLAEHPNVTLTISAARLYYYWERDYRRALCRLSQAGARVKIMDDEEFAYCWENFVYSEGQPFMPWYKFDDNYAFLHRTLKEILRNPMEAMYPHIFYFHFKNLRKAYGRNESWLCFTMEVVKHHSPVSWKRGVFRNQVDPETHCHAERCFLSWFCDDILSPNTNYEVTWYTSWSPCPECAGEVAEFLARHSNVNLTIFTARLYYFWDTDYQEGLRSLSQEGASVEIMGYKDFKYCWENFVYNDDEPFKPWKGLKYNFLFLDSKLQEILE
UniProt P25054, whole entry, looked up: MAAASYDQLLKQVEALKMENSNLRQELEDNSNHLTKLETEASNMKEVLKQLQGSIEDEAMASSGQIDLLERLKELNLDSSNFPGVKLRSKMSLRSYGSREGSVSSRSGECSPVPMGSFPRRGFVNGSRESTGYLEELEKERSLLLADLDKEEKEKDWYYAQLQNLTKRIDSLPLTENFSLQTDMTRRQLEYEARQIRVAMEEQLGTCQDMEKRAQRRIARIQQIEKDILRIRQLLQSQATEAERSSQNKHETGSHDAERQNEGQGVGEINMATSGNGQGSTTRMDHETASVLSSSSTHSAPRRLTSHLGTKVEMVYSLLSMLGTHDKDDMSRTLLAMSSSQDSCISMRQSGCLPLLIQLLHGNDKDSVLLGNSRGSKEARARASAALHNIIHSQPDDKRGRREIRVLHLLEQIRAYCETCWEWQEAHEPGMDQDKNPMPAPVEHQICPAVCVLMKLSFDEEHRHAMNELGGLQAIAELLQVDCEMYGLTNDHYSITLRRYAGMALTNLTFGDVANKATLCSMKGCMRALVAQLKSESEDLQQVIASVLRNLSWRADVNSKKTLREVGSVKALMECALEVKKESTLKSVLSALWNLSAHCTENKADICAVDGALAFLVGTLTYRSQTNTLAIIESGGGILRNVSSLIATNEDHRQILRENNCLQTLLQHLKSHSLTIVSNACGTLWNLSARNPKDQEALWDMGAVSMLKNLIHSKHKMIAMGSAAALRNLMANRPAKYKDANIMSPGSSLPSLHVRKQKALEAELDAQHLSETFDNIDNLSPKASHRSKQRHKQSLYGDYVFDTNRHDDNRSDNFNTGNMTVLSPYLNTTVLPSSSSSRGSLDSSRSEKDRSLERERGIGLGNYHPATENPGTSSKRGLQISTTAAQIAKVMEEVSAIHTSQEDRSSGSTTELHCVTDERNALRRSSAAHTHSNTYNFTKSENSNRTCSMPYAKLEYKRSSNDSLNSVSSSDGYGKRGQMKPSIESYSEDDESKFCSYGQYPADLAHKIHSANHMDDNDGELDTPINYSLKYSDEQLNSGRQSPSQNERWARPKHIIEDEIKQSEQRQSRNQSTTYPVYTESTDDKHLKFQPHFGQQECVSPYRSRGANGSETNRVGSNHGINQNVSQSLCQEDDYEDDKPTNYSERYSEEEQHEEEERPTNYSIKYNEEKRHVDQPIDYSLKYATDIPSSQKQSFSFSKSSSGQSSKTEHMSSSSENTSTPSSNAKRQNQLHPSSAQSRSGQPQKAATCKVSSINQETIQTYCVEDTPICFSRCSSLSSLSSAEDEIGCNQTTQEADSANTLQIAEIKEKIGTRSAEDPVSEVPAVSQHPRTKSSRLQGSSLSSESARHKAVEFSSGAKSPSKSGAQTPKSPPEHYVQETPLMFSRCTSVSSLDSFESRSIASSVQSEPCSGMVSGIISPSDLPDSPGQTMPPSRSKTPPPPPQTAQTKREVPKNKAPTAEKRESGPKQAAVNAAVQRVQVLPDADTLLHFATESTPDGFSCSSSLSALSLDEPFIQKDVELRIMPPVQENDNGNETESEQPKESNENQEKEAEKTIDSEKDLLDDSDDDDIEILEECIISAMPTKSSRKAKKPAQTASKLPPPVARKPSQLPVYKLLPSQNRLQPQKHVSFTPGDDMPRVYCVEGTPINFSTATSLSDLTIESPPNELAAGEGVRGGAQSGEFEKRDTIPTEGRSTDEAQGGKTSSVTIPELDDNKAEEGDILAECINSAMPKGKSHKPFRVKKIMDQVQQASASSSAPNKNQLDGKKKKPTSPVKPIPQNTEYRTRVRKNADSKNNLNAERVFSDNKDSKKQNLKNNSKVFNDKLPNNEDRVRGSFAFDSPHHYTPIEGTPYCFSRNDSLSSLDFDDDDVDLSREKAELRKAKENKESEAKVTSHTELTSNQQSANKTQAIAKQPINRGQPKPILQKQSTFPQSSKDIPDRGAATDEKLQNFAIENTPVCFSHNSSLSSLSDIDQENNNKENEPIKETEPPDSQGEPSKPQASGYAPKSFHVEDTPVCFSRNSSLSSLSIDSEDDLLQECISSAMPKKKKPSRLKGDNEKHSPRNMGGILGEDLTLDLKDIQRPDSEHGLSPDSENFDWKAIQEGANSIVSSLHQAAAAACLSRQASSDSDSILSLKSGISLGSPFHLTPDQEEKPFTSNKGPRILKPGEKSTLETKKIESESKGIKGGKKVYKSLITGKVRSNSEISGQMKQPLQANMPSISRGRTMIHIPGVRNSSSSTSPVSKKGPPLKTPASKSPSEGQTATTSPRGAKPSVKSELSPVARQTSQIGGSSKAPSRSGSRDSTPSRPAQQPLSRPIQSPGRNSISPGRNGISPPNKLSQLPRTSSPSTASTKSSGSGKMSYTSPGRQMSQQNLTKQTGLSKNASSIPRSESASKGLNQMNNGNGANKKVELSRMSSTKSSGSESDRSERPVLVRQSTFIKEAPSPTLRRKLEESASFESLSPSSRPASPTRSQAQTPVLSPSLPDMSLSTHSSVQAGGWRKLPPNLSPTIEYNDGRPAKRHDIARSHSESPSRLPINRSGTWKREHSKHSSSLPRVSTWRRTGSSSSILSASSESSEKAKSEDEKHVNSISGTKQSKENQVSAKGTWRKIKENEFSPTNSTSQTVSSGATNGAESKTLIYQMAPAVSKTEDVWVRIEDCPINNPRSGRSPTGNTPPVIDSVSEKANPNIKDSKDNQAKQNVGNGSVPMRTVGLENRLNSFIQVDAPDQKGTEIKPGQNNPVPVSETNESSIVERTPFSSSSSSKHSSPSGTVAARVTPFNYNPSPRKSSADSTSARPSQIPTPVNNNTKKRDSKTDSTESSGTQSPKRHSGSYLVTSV
UniProt Q96KC2: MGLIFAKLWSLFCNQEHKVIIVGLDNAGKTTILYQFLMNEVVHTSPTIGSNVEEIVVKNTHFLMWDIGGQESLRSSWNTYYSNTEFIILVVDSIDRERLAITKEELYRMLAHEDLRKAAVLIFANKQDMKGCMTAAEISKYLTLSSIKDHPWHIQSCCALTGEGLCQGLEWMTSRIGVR
UniProt Q9H2C2: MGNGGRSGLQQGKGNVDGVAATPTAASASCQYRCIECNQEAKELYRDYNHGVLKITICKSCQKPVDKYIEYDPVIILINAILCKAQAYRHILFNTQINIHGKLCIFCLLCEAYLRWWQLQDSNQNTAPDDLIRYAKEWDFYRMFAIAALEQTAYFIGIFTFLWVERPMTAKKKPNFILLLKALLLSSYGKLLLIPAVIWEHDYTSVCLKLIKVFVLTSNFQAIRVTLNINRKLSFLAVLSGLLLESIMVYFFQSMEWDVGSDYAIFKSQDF

How the values were obtained:
Assay in all cases: log2 fold change, soluble protein after heating vs DMSO (PISA); higher = thermal stabilisation; K562 lysate, 10 uM; active = over 0.2 and 3.5 SD of the protein, either way, in both replicates (recomputed)
ibrutinib = compound: C=CC(=O)N1CCC[C@@H](n2nc(-c3ccc(Oc4ccccc4)cc3)c3c(N)ncnc32)C1 [ibrutinib]
In short: (§1)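 Following dounce homogenisation of K562 pellets in PBS pH 7.4 with 1 mM MgCl2, crude extract at 1 mg/mL protein was incubated for 30 min with 10 μM compound. Aliquots were then heated for 3 min over 48°C-58°C and pooled, NP-40 was added to 0.5% at 4°C, and soluble protein was recovered as the supernatant at 21,000xg for 90 min. Channel-sum-equalised TMTpro 16plex LC-MS/MS quantified this protein. Each value, from duplicates, is a log-two fold change in thermal stability relative to solvent controls.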

[1] = compound: CC(=O)c1cnc2ccc(-c3cc(Cl)c(O)c(Cl)c3)nc2c1N[C@H]1CC[C@H](CN(C)C)CC1
In short: as §1

ralimetinib = compound: CC(C)(C)Cn1c(N)nc2ccc(-c3[nH]c(C(C)(C)C)nc3-c3ccc(F)cc3)nc21 [ralimetinib]
In short: as §1

[2] = compound: CC(C)(O)CC(=O)NCCn1ccc2ncnc(Nc3ccc(Oc4cccc(C(F)(F)F)c4)c(Cl)c3)c21
In short: as §1

[3] = compound: CC(C)C1=C2N=C(C=C(N2N=C1)NCC3=CC=CC=C3)NCCCCCCN
In short: as §1

[4] = compound: CC1=C(C(CC(=O)N1)C2=CC=C(C=C2)C(F)(F)F)C(=O)NC3=C(C=C4C(=C3)C=NN4)F
In short: as §1

[5] = compound: CC1=C(C2=C(C=C1)C(=O)C3=CC=CC=C3N2CCCN)C
In short: as §1

[6] = compound: CC1=C(C=C(C=C1)NC(=O)C2=CC(=CC=C2)C(C)(C)C#N)NC3=CC4=C(C=C3)N=CN(C4=O)C
In short: as §1

[7] = compound: CC1=C(C=C(C=C1)NC(=O)C2=CC(=CC=C2)N(C)C)NC(=O)C3=CC=C(C=C3)O
In short: as §1

[8] = compound: CC1=CC=C(C=C1)SC2=C3C=C(SC3=CN=C2)C(=O)N
In short: as §1

vemurafenib = compound: CCCS(=O)(=O)Nc1ccc(F)c(C(=O)c2c[nH]c3ncc(-c4ccc(Cl)cc4)cc23)c1F [vemurafenib]
In short: as §1

[9] = compound: CCCS(=O)(=O)Nc1ccc(F)c(C(=O)c2c[nH]c3ncc(Cl)cc23)c1F
In short: as §1

barasertib = compound: CCN(CCCOc1ccc2c(Nc3cc(CC(=O)Nc4cccc(F)c4)[nH]n3)ncnc2c1)CCOP(=O)(O)O [barasertib]
In short: as §1

[10] = compound: CC[C@@H]1C(=O)N(C)c2cnc(Nc3ccc(C(=O)NC4CCN(C)CC4)cc3OC)nc2N1C1CCCC1
In short: as §1

volasertib = compound: CC[C@@H]1C(=O)N(C)c2cnc(Nc3ccc(C(=O)N[C@H]4CC[C@H](N5CCN(CC6CC6)CC5)CC4)cc3OC)nc2N1C(C)C [volasertib]
In short: as §1

[11] = compound: CCn1c(C(=O)N(C2CC2)C2CC2)cc2c3c(ncn3C)c(Nc3cc(C)n(C)n3)nc21
In short: as §1

[12] = compound: CCn1cc(-c2ccnc3[nH]c(-c4cccc(CN(C)C)c4)cc23)c(-c2ccc(NC(=O)N(C)C)cc2)n1
In short: as §1

[13] = compound: CN1CCC(CNc2ccc3ncc(-c4cccc(OC(F)(F)F)c4)n3n2)CC1
In short: as §1

saracatinib = compound: CN1CCN(CCOc2cc(OC3CCOCC3)c3c(Nc4c(Cl)ccc5c4OCO5)ncnc3c2)CC1 [saracatinib]
In short: as §1

sotrastaurin = compound: CN1CCN(c2nc(C3=C(c4c[nH]c5ccccc45)C(=O)NC3=O)c3ccccc3n2)CC1 [sotrastaurin]
In short: as §1

Measured: log2 fold change

ARHGAP17 (UniProt Q68EM7)
inactive: ibrutinib -0.009 | [1] 0.022 | ralimetinib -0.015 | [2] -0.01 | [3] -0.053 | [4] 0.026 | [5] 0.012 | [6] -0.003 | [7] 0.019 | [8] 0.032 | vemurafenib 0.059 | [9] 0.016 | barasertib -0.025 | [10] -0.05 | volasertib -0.038 | [11] 0.023 | [12] 0.077 | [13] -0.027 | saracatinib -0.008 | sotrastaurin 0.009

ARGLU1 (UniProt Q9NWB6)
inactive: ibrutinib 0.027 | [1] -0.034 | ralimetinib -0.027 | [2] 0.015 | [3] 0.005 | [4] -0.008 | [5] 0.026 | [6] -0.027 | [7] -0.022 | [8] 0.019 | vemurafenib -0.013 | [9] 0.027 | barasertib -0.043 | [10] 0.001 | volasertib 0.027 | [11] -0.035 | [12] 0.073 | [13] -0.02 | saracatinib 0.047 | sotrastaurin -0.019

ARIH2 (UniProt O95376)
inactive: ibrutinib -0.003 | [1] 0.017 | ralimetinib 0.001 | [2] -0.028 | [3] -0.029 | [4] 0.016 | [5] 0.002 | [6] 0.081 | [7] -0.001 | [8] -0.017 | vemurafenib -0.048 | [9] -0.009 | barasertib -0.016 | [10] 0.032 | volasertib 0 | [11] -0.002 | [12] 0.096 | [13] -0.004 | saracatinib 0.003 | sotrastaurin -0.09

APOA1 (UniProt P02647)
inactive: ibrutinib 0.025 | [1] -0.039 | ralimetinib -0.114 | [2] 0.039 | [3] -0.023 | [4] 0.121 | [5] -0.014 | [6] 0.057 | [7] -0.009 | [8] -0.068 | vemurafenib 0.033 | [9] 0.029 | barasertib 0.074 | [10] 0.096 | volasertib 0.107 | [11] -0.096 | [12] -0.039 | [13] 0.072 | saracatinib -0.049 | sotrastaurin -0.058

ARID1A (UniProt O14497)
inactive: ibrutinib 0 | [1] -0.004 | ralimetinib 0.019 | [2] -0.004 | [3] 0.008 | [4] 0.001 | [5] -0.003 | [6] -0.012 | [7] -0.004 | [8] 0.014 | vemurafenib 0.011 | [9] 0.009 | barasertib 0.102 | [10] -0.053 | volasertib -0.027 | [11] 0.03 | [12] -0.003 | [13] -0.004 | saracatinib -0.006 | sotrastaurin 0.012

APBA1 (UniProt Q02410)
inactive: ibrutinib -0.095 | [1] 0.021 | ralimetinib 0.09 | [2] -0.021 | [3] -0.01 | [4] -0.037 | [6] -0.004 | [7] 0.115 | [8] -0.008 | [9] -0.019 | barasertib 0.039 | [10] 0.066 | volasertib 0.015 | [11] -0.016 | [12] 0.237 | [13] -0.03 | sotrastaurin 0.064

AP5S1 (UniProt Q9NUS5)
inactive: [1] -0.219 | ralimetinib -0.208 | [2] -0.068 | [3] -0.455 | [5] -0.099 | [6] 0.097 | [7] -0.073 | [8] 0.113 | [9] -0.008 | [10] -0.022 | volasertib 0.039 | [11] 0.046 | saracatinib 0.084 | sotrastaurin -0.033

ARHGAP19 isoform 2 (UniProt Q14CB8)
inactive: ibrutinib 0.324 | ralimetinib -0.023 | [2] 0.05 | [3] 0.028 | [4] -0.042 | [5] -0.005 | [6] 0.023 | [7] 0.026 | vemurafenib -0.129 | barasertib -0.099 | [10] 0.089 | [11] -0.027 | saracatinib 0.085 | sotrastaurin -0.033

ARL8B (UniProt Q9NVJ2)
inactive: ibrutinib -0.013 | [1] 0.021 | ralimetinib 0.026 | [2] -0.058 | [3] -0.03 | [4] 0.013 | [5] 0 | [6] 0.011 | [7] -0.013 | [8] -0.02 | vemurafenib -0.007 | [9] -0.017 | barasertib -0.03 | [10] 0.088 | volasertib 0.028 | [11] 0.007 | [12] -0.128 | [13] 0.049 | saracatinib 0.009 | sotrastaurin 0.046

APPL1 (UniProt Q9UKG1)
inactive: ibrutinib 0.031 | [1] -0.003 | ralimetinib 0.008 | [2] -0.028 | [3] -0.008 | [4] 0.032 | [5] -0.028 | [6] 0.092 | [7] -0.001 | [8] -0.02 | vemurafenib 0.032 | [9] 0.02 | barasertib 0.002 | [10] 0.002 | volasertib -0.019 | [11] -0.01 | [12] 0.087 | [13] -0.031 | saracatinib 0.002 | sotrastaurin -0.003

APOBEC3F (UniProt Q8IUX4)
inactive: ibrutinib -0.013 | [1] -0.332 | [3] -0.031 | [4] 0.061 | [6] 0.032 | [8] 0.083 | vemurafenib -0.001 | [9] 0.005 | barasertib 0.025 | [10] 0.08 | volasertib -0.06 | [12] -0.163 | [13] 0.066 | sotrastaurin 0.008

APC (UniProt P25054)
inactive: ibrutinib 0 | ralimetinib 0.019 | [2] -0.03 | [3] 0.012 | [5] -0.015 | [6] 0.012 | [7] 0.072 | vemurafenib -0.185 | barasertib 0.034 | [10] 0.002 | [11] 0.065 | [12] -0.012 | [13] 0.036 | saracatinib 0.029 | sotrastaurin -0.03

ARHGAP28 (UniProt Q9P2N2)
inactive: ibrutinib -0.008 | [1] -0.062 | [3] -0.031 | [5] -0.066 | [8] -0.066 | [9] -0.041 | barasertib -0.03 | volasertib -0.056 | saracatinib -0.009

ARL5B (UniProt Q96KC2)
inactive: ibrutinib -0.048 | [1] 0.073 | ralimetinib 0.076 | [2] -0.112 | [3] 0.18 | [4] -0.005 | [6] 0.011 | [7] -0.051 | [8] 0.002 | vemurafenib 0.099 | [9] 0.039 | barasertib 0.122 | [10] -0.004 | volasertib -0.163 | [11] -0.2 | [12] -0.165 | [13] 0.026 | sotrastaurin 0.002

Two entries drawn at random from the list so far, as already listed:
ARL5B (UniProt Q96KC2)
inactive: ibrutinib -0.048 | [1] 0.073 | ralimetinib 0.076 | [2] -0.112 | [3] 0.18 | [4] -0.005 | [6] 0.011 | [7] -0.051 | [8] 0.002 | vemurafenib 0.099 | [9] 0.039 | barasertib 0.122 | [10] -0.004 | volasertib -0.163 | [11] -0.2 | [12] -0.165 | [13] 0.026 | sotrastaurin 0.002

APPL1 (UniProt Q9UKG1)
inactive: ibrutinib 0.031 | [1] -0.003 | ralimetinib 0.008 | [2] -0.028 | [3] -0.008 | [4] 0.032 | [5] -0.028 | [6] 0.092 | [7] -0.001 | [8] -0.02 | vemurafenib 0.032 | [9] 0.02 | barasertib 0.002 | [10] 0.002 | volasertib -0.019 | [11] -0.01 | [12] 0.087 | [13] -0.031 | saracatinib 0.002 | sotrastaurin -0.003

The list goes on:

APPBP2 (UniProt Q92624)
inactive: ibrutinib 0.154 | ralimetinib -0.045 | [2] -0.052 | [3] 0.049 | [6] 0.054 | [7] -0.175 | barasertib -0.314 | [11] -0.064 | [12] 0.183 | [13] -0.046 | sotrastaurin 0.027

APH1A (UniProt Q96BI3)
inactive: ibrutinib -0.084 | [1] 0.046 | [3] -0.103 | [4] 0.11 | [6] 0.073 | [8] -0.072 | [9] 0.06 | barasertib -0.023 | [10] -0.029 | volasertib 0.061 | [12] 0.071 | [13] -0.023 | sotrastaurin -0.015

ARV1 (UniProt Q9H2C2)
inactive: ibrutinib -0.099 | [1] 0.065 | ralimetinib 0.044 | [2] -0.011 | [4] 0.104 | [5] 0.334 | [6] 0.072 | [7] -0.042 | [8] 0.028 | vemurafenib -0.108 | [9] 0.036 | barasertib 0 | [10] 0.097 | volasertib 0.002 | [11] 0.096 | [12] -0.158 | [13] 0.023 | saracatinib -0.042 | sotrastaurin 0.225

ARL14EP (UniProt Q8N8R7)
inactive: ibrutinib 0.016 | ralimetinib 0.056 | [2] -0.017 | [3] -0.047 | [4] 0.018 | [5] -0.144 | [6] -0.03 | [7] 0.059 | vemurafenib -0.055 | barasertib -0.008 | [11] -0.009 | [12] -0.011 | [13] 0.012 | saracatinib 0.081 | sotrastaurin 0.046

ARID2 (UniProt Q68CP9)
inactive: ibrutinib -0.013 | [1] 0 | ralimetinib 0.037 | [2] -0.032 | [4] 0.056 | [5] -0.093 | [6] 0.016 | [7] 0.058 | [8] 0.006 | vemurafenib 0.047 | [9] -0.023 | barasertib 0.011 | [10] -0.106 | volasertib -0.034 | [11] 0.134 | [12] -0.086 | [13] -0.007 | saracatinib 0.013 | sotrastaurin -0.043
